Experimental findings from publication PMC8429728, “TNK1 is a ubiquitin-binding and 14-3-3-regulated kinase that can be targeted to block tumor growth” (Nature Communications, 2021) are described below.

Where a chain is given by its changes, count along the chain named. These are yes or no findings as the source states them, for the method shown. Binding seen in cells or lysates may run through a third protein. For part of these data: A result given as binding can be weak or reduced; the word gives no strength. Tags and fused reporters may be left off the sequences shown.

Common to all, as to assay: co-IP; FLAG-TNK1 (WT or mutants) precipitated on anti-DYKDDDDK resin from HEK-293T lysate (10 mM HEPES KOH pH 7.5, 150 mM KCl, 0.01% IGEPAL), 1 h 4 °C, washed with PBS; immunoblotted for 14-3-3 or ubiquitin; in Fig. 2c cells treated with 1 uM kinase inhibitors for 4 h
In general terms: Immunoblotting shows a protein as a band on a membrane.

One experiment has as its target T1, FLAG-TNK1 S68A (human) (UniProt Q13470).
T1 sequence: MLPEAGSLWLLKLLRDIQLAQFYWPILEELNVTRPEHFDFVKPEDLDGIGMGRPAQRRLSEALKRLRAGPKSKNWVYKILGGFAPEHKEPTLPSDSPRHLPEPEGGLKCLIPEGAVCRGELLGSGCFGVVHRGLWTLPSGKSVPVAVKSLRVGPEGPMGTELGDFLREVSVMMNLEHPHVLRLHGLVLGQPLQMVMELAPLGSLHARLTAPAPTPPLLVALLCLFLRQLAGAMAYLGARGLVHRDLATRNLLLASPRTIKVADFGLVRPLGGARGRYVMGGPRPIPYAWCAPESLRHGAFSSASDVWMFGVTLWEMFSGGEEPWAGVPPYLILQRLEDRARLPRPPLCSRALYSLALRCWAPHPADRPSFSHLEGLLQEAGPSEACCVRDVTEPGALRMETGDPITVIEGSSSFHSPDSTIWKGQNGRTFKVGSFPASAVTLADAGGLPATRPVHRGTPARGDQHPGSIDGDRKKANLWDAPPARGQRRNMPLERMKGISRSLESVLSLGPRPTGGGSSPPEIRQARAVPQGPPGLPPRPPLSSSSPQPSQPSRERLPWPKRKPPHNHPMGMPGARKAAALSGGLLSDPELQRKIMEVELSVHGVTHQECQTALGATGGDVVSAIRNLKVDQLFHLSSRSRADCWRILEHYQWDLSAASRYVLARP

A further experiment addresses T2, FLAG-TNK1 T91A (human) (UniProt Q13470).
T2 sequence: T1 sequence with A68S, T91A

For a further experiment, the target named is T3, FLAG-TNK1 AAA (human) (UniProt Q13470).
T3 sequence: T1 sequence with A68S, S500A, S502A, S505A

As to “14-3-3 (endogenous, isoform not told) (human (endogenous in HEK-293T or A549))”, the binding result in the experiment with FLAG-TNK1 S68A (human) was “binds”; with FLAG-TNK1 T91A (human), “binds”; with FLAG-TNK1 AAA (human) it was “no binding”.
